The record followed here is paper PMC3513969 (Evidence-based Complementary and Alternative Medicine : eCAM, 2012).

Like-named read-outs stand apart in the source and are kept apart here.

For orientation: Tmax means the time from dosing to the highest level. What is called Vd/F is the volume of distribution divided by bioavailability. By AUC(0-inf) is commonly meant total exposure, with the tail of the curve extrapolated. For orientation: AUC(0-t) means the area under the concentration-time curve up to a stated or last time point. One may read the MRT as a mean duration of stay, worked out from the concentration-time curve. The CL/F is clearance divided by bioavailability, as obtained after extravascular dosing.

One data set can be described thus: clinical. The settings on record: human, in vivo.
The conditions of data set [1]: healthy subjects; for CL/F: fasted, mean ± SD, n = 14.

`COC(=O)C1=C(C)NC(C)=C(C(=O)OC)C1c1ccccc1[N+](=O)[O-]` [Nifedipine, nifedipine]: in the data set “clinical”, the Tmax came out at 33 ± 25.8 min and the Vd/F amounted to 187 ± 69.9 L. In the data set “clinical” (5 mg), the AUC(0-inf) was determined as 136 ± 38.2 ng·h/mL, the AUC(0-t) is 132 ± 37 ng·h/mL, the MRT worked out at 221 ± 35.4 min and the Tmax is 27.6 ± 9 min. The Vd/F in “clinical” (5 mg) came out at 201 ± 56.1 L. Further, in data set [1] (5 mg nifedipine with or without one LipoCol Forte capsule), the “Change of plasma concentration profile and pharmacokinetic parameters with concomitant LipoCol Forte” value was “not significantly changed”. This compound also showed a CL/F in data set [1] (single 5 mg nifedipine capsule alone) of 40.2 ± 14.9 L/h. Besides, the CL/F in data set [1] (single 5 mg nifedipine capsule with 600 mg LipoCol Forte capsule) was 37.3 ± 9.9 L/h.
